Assay results from patent US20250268736A1, “VASCULAR STENT AND MANUFACTURING PROCESS THEREFOR” (THE SECOND AFFILIATED HOSPITAL OF GUANGZHOU MEDICAL …, priority 2024, published 2025).
At least one structure is not confirmed: it was looked up by name or label, or the drawing left a doubt.

What was measured:
[1] = system: endothelial protein C receptor (EPCR); test: Immunofluorescence of EPCR in mouse cardiac vessels after tail vein injection; format: in vivo; details: C57BL6/J mice, 2 mg/kg daily via tail vein injection for 2 weeks
Experimental: (§1) Specifically, HCAECs are cultured in an endothelial cell basal medium (EBM)-2 (Lonza, CC3156) supplemented with a 3% fetal bovine serum (FBS) and endothelial growth factor supplement mixture (Lonza, CC4176) under standard cell culture conditions (37° C., 5% CO2), and P3-5 cells are tested at 70%-80%. Western blotting is performed to test protein expression after HCAECs are treated with rapamycin, zotarolimus, everolimus, and paclitaxel at the doses shown in FIG. 1, or 100 nM of tacrolimus, deforolimus, biolimus A9, and pimecrolimus for 24 h. Alternatively, C57BL6/J mice received rapamycin, zotarolimus, everolimus, and paclitaxel at 2 mg/kg of body weight daily via tail vein injection for 2 weeks, and immunofluorescence observation of tissues is performed.

[2] = system: endothelial protein C receptor (EPCR); test: Western blotting of EPCR protein expression in HCAECs treated with limus drugs or paclitaxel; format: cell-based, human; details: 24 h, doses shown in FIG. 1, western blotting
Experimental: as §1

## CO[C@H]1C[C@@H]2CC[C@@H](C)[C@@](O)(O2)C(=O)C(=O)N2CCCC[C@H]2C(=O)O[C@H]([C@H](C)C[C@@H]2CC[C@@H](O)[C@H](OC)C2)CC(=O)[C@H](C)/C=C(\C)[C@@H](O)[C@@H](OC)C(=O)[C@H](C)C[C@H](C)/C=C/C=C/C=C/1C [rapamycin]
[1]
  expression of EPCR in mouse cardiac vessels: inhibit expression of the EPCR in mouse cardiac vessels
[2]
  expression of EPCR in HCAECs: inhibit expression of an EPCR in HCAECs in a concentration-dependent manner
